Laboratory results as given in doi:10.1101/2020.04.29.068866.
These are yes or no findings as the source states them, for the method shown. In cells and extracts the contact can be indirect. Some results given as binding are weak or reduced against the parent protein; the word gives no strength.

Target: T1, wild type Drosophila Orc6 (in vitro transcription/translation) (Drosophila) (UniProt Q9Y1B2)
T1 sequence: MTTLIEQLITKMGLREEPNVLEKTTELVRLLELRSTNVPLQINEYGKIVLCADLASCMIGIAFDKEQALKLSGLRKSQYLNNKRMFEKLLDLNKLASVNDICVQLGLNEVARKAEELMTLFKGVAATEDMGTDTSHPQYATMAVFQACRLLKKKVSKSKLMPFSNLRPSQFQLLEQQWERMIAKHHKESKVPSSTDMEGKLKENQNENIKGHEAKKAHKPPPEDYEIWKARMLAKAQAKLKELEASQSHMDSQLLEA
Test: pull-down

B1: Orc3 subunit of ORC (in vitro transcription/translation) (protein, UniProt Q7K2L1 1-721)
chain: MDPTISVSKGCFVYKNGATRAGKKAASKRKRPAAESSSLLGKEVVQQPFYEEYRKAWNQINDHIADLQHRSYARTLEQLVDFVVGQAERDTPDEVLPTAALLTGINQPDHLSQFTALTQRLHAQRAAMVCVLQSRDCATLKAAVETLVFGLVEDNAEVEQMEDEDEDEDGAERDRKRLRRSQCTMKQLKSWYTNNFDSEQKRRQLVVILPDFECFNASVLQDLILILSAHCGSLPFVLVLGVATAMTAVHGTLPYHVSSKIRLRVFQTQAAPTGLNEVLDKVLLSPKYAFHLSGKTFKFLTHIFLYYDFSIHGFIQGFKYCLMEHFFGGNAFALCTDYSKALGRIKQLTHEDMETIRRLPSFRPYVEQINDCKRIIAVLTDDDYLKKKLPQLLRDCLLHFLLFRCSLEFLTELVGDLPRCPLGKLRRELYVNCLNRAIISTPEYKECLQMLSFLSKDEFVAKVNRALERTEQFLVEEIAPLELGEACTAVLRPKLEAIRLAVDEVVKATMATITTTSPNETRQATDHLTPVASRQELKDQLLQRSKEDKMRHQLNTPTTQFGRALQKTLQLIETQIVQDHLRALQDAPPIHELFVFSDIATVRRNIIGAPRAALHTALNNPHFYMQCKCCELQDQSLLVGTLPDLSVVYKLHLECGRMINLFDWLQAFRSVVSDSDHEEVAQEQIDPQIQARFTRAVAELQFLGYIKMSKRKTDHATRLTW
**Q.** Which binding does the source give for B1 here?
**A.** binds
